# Measurements as given in US11634417B2 (Array BioPharma Inc., priority 2019, dated 2023).
# Some entries share one result that the patent states for a list of compounds.
# Biological target: T1, full-length SHP2 (Homo sapiens, UniProt Q06124)
# T1 construct: 1 nM full-length SHP2 (His6-tagged SHP2(2-527), recombinantly expressed in E. coli and purified in-house); His6; made in house; host or cells: E. coli
# T1 sequence (Q06124 2-527): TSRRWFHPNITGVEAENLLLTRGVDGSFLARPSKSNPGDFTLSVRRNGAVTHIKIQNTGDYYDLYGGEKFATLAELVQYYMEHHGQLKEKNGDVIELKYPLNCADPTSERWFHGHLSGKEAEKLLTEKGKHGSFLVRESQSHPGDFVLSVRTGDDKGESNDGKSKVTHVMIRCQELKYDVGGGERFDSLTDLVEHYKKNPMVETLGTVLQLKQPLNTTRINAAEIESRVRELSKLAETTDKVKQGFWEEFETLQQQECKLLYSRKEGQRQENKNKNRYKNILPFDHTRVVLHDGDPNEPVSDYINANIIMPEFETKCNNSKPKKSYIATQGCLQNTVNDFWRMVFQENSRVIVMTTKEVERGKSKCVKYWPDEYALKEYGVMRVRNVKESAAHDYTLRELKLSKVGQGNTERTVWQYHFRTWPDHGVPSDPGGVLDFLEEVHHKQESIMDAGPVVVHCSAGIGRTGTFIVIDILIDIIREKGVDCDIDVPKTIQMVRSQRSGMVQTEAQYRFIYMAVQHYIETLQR
# Assay: SHP2 enzymatic assay (fluorescence intensity kinetic assay, DiFMUP hydrolysis)
# Type: biochemical
# Details: text of b326, read-out: IC50 (text statement, Examples 1-14)
# Protocol: A fluorescence intensity kinetic assay was configured for full-length SHP2 that monitors the amount of 6,8-difluoro-7-hydroxy-4-methylcoumarin (“DiFMU”) formed upon hydrolysis of 6,8-difluoro-4-methylumbelliferyl phosphate (“DiFMUP”) by SHP2. […] Low control wells lacked enzyme. The assays were initiated by the addition of a mixture of SHP2 and the activating peptide, and following a 15 second mix on an orbital shaker, were read in kinetic mode for 15 minutes (30 seconds/cycle) at ambient temperature on a PerkinElmer EnVision microplate reader (kEx=355 nm, kEm=460 nm). Initial velocities (slopes of the tangents at t=0) were estimated from exponential fits to the slightly nonlinear progress curves and then were converted to percent of control (“POC”) using the following equation:
# [formula] • Where: xmax Average Uninhibited Controls • Xmin Average Background A 4-parameter logistic model was the fit to the POC data for each compound. From that fit, the IC50 was estimated and is defined as the concentration of compound at which the curve crosses 50 POC.
smiles,measurement,value
"C[C@@H]1OCC2(CCN(c3ncc(Sc4ccnc(N)c4Cl)nn3)CC2)[C@@H]1N [Example 1, (3S,4S)-8-(6-((2-amino-3-chloropyridin-4-yl)thio)-1,2,4-triazin-3-yl)-3-methyl-2-oxa-8-azaspiro[4.5]decan-4-amine]",IC50,< 1000 nM
"C[C@@H]1OCC2(CCN(c3ncc(-c4cccc(Cl)c4Cl)nn3)CC2)[C@@H]1N [Example 2, (3S,4S)-8-(6-(2,3-dichlorophenyl)-1,2,4-triazin-3-yl)-3-methyl-2-oxa-8-azaspiro[4.5]decan-4-amine]",IC50,< 1000 nM
"Nc1nccc(Sc2cnc(N3[C@H]4CC[C@H]3CC(N)C4)nn2)c1Cl (stereo partly drawn) [Example 3, (1R,3s,5S)-8-(6-((2-amino-3-chloropyridin-4-yl)thio)-1,2,4-triazin-3-yl)-8-azabicyclo[3.2.1]octan-3-amine]",IC50,< 1000 nM
"Cc1nc(N2CCC3(CC2)CO[C@@H](C)[C@H]3N)nnc1Sc1ccnc(N)c1Cl [Example 4, (3S,4S)-8-(6-((2-amino-3-chloropyridin-4-yl)thio)-5-methyl-1,2,4-triazin-3-yl)-3-methyl-2-oxa-8-azaspiro[4.5]decan-4-amine]",IC50,< 1000 nM
"Cc1nc(N2CCC3(CC2)CO[C@@H](C)[C@H]3N)nnc1-c1cccc(Cl)c1Cl [Example 5, (3S,4S)-8-(6-(2,3-dichlorophenyl)-5-methyl-1,2,4-triazin-3-yl)-3-methyl-2-oxa-8-azaspiro[4.5]decan-4-amine]",IC50,< 1000 nM
"C[C@@H]1OCC2(CCN(c3ncc(Sc4cccc(Cl)c4Cl)nn3)CC2)[C@@H]1N [Example 7, (3S,4S)-8-(6-((2,3-dichlorophenyl)thio)-1,2,4-triazin-3-yl)-3-methyl-2-oxa-8-azaspiro[4.5]decan-4-amine]",IC50,< 1000 nM
"C[C@@H]1OCC2(CCN(c3ncc(Sc4ccnc5[nH]ccc45)nn3)CC2)[C@@H]1N [Example 8, (3S,4S)-8-(6-((1H-pyrrolo[2,3-6]pyridin-4-yl)thio)-1,2,4-triazin-3-yl)-3-methyl-2-oxa-8-azaspiro[4.5]decan-4-amine]",IC50,< 1000 nM
"C[C@@H]1OCC2(CCN(c3ncc(Sc4c(Cl)cnc5[nH]ccc45)nn3)CC2)[C@@H]1N [Example 9, (3S,4S)-8-(6-((5-chloro-1H-pyrrolo[2,3-b]pyridin-4-yl)thio)-1,2,4-triazin-3-yl)-3-methyl-2-oxa-8-azaspiro[4.5]decan-4-amine]",IC50,< 1000 nM
"CC1(N)CCCN(c2ncc(Sc3ccnc(N)c3Cl)nn2)CC1 (stereo not shown) [Example 10, 1-(6-((2-amino-3-chloropyridin-4-yl)thio)-1,2,4-triazin-3-yl)-4-methylazepan-4-amine]",IC50,< 1000 nM
"CC1(N)CCCN(c2ncc(Sc3cccc(Cl)c3Cl)nn2)CC1 (stereo not shown) [Example 11, 1-(6-((2,3-dichlorophenyl)thio)-1,2,4-triazin-3-yl)-4-methylazepan-4-amine]",IC50,< 1000 nM
"NC1C[C@@H]2CC[C@@H](C1)N2c1ncc(Sc2cccc(Cl)c2Cl)nn1 (stereo partly drawn) [Example 12, (1R,3s,5S)-8-(6-((2,3-dichlorophenyl)thio)-1,2,4-triazin-3-yl)-8-azabicyclo[3.2.1]octan-3-amine]",IC50,< 1000 nM
"Cc1nc(N2CCC3(CC2)CO[C@@H](C)[C@H]3N)nnc1Sc1cccc(Cl)c1Cl [Example 13, (3S,4S)-8-(6-((2,3-dichlorophenyl)thio)-5-methyl-1,2,4-triazin-3-yl)-3-methyl-2-oxa-8-azaspiro[4.5]decan-4-amine]",IC50,< 1000 nM
"Cc1nccc(Sc2cnc(N3CCC4(CC3)CO[C@@H](C)[C@H]4N)nn2)c1Cl [Example 14, (3S,4S)-8-(6-((3-chloro-2-methylpyridin-4-yl)thio)-1,2,4-triazin-3-yl)-3-methyl-2-oxa-8-azaspiro[4.5]decan-4-amine]",IC50,< 1000 nM
